Test results as given in patent publication US11530263B2, “IL-18 binding protein (IL-18BP) in inflammatory diseases” (AB2 BIO SA, priority 2013, dated 2022).
At least one compound was matched to its structure with a doubt left.

Tested on: total cell infiltration in the lung airway space
Test: Exacerbation/tobacco smoke mouse model: total cell infiltration in lung airway space (BALF)
Type: in vivo, C57BL/6J mice
Details: 3 mg/kg, data not shown
Method: The aim of the study was to determine the effect of IL-18BP, administered at three dose levels, by the sub-cutaneous route, on Polyinosinic:polycytidylic acid-induced exacerbation of tobacco-smoke induced pulmonary inflammation, in C57BL/6J mice. High level of dexamethasone, dosed orally, was included in the study as a reference agent.
Mice received either vehicle (PBS) or IL-18BP. IL-18BP was given subcutaneously to 3 groups of animals respectively at 1, 3 or 10 mg/kg 2 h prior to the initial tobacco smoke exposure from Day 1 to Day 4. Mice received orally either vehicle or dexamethasone (10 mg/kg) 1 h prior to each twice daily exposure. Mice received by intranasal administration either the vehicle or Polyinosinic:polycytidylic acid (2 mg/kg) 2 h prior to the initial air or tobacco smoke exposure on Day 4 to induce lung inflammation exacerbation. Tobacco smoke exposure was performed during the morning and afternoon as follow: Day 1 for 15 min, Day 2 for 25 min, Day 3 for 30 min and Day 4 for 30 min.
Following the above treatments, animals were terminally anaesthetised on Day 5. After that, a blood sample was taken via the sub-clavian artery (plasma) and the animals were bronchoalveloar lavaged with 3×0.4 ml of PBS for further cellular and cytokine/mediator analysis. […] Cells recovered from the BALF were counted using the Sysmex cell counter.

## C[C@@H]1C[C@H]2[C@@H]3CCC4=CC(=O)C=C[C@]4(C)[C@@]3(F)[C@@H](O)C[C@]2(C)[C@@]1(O)C(=O)CO [dexamethasone, reference compound]
  Efficacy on cell infiltration: no sign of efficacy
